Results as given in PubChem BioAssay AID493014 (National Center for Advancing Translational Sciences (NCATS), 2011).
The list shows a part of the results. The main result of the screen is listed elsewhere. These columns were measured beside it and carry no call. Compounds called inactive in the main read-out are mostly missing here. The note in brackets gives the kind of curve behind each potency; many fits are weak.

Assay: qHTS Assay to Find Inhibitors of Chronic Active B-Cell Receptor Signaling
Settings: ABC-DLBCL IkBa-CBG/CBR reporter, luminescence ratio (green luciferase fused to IkBa over red control in TMD8 lymphoma cells), 4 h
In short: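 TMD8 ABC-DLBCL cells carrying doxycycline-inducible green luciferase fused to IkappaBalpha plus unfused red luciferase were exposed to compounds (up to 46 uM) for 4 hrs at 37C. Activity came from the overlap-corrected green/red luminescence ratio.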

[1] = measured here: CBR red luminescence, cell number
[2] = measured here: IkBa-CBG green luminescence

Compound: Cc1ccc(-c2cc(C(=O)N/N=C/c3c(C)nn(C)c3C)c3ccccc3n2)cc1C
- AC50 [1]: 7.31 µM [rising, partial curve]

Compound: O=C(NN1CCOCC1)c1cc(-c2cccc(Cl)c2)nc2ccccc12
- AC50 [1]: 35.5 µM [rising, single point]

Compound: COc1cc(/C=C(/C(=O)c2cccs2)c2nc3ccccc3[nH]2)ccc1O
- AC50 [1]: 0.891 µM [falling, partial curve, poor fit]

Compound: Cc1ccc(Cn2ccc(NC(=O)c3cc(C)on3)n2)cc1
- AC50 [1]: 0.0651 µM [falling, full curve, poor fit]

Compound: O=C(Oc1c(-c2ccccc2)c(=O)n2c3c(cccc13)CC2)c1cccc([N+](=O)[O-])c1
- AC50 [1]: 3.16 µM [falling, partial curve, poor fit]

Compound: O=S(=O)(NC1CC1)c1ccc(S(=O)(=O)N2CCCC3(CCCCC3)C2)cc1
- AC50 [1]: 6.51 µM [falling, single point]
- AC50 [2]: 6.51 µM [rising, partial curve, poor fit]

Compound: CCCCCCN(C(=O)CCCCCN1C(=O)NC(c2cccc([N+](=O)[O-])c2)C(C(=O)OCc2ccccc2)=C1C)C(C(=O)NCCCC)c1ccc(OCC(=O)OC)c(C(=O)OC)c1 (configuration not stated)
- AC50 [1]: 35.5 µM [falling, single point]

Compound: COc1ccccc1NC1=CC(=O)CC(c2ccccc2)C1 (configuration not stated)
- AC50 [2]: 20.6 µM [falling, partial curve, poor fit]

Compound: N#CC1(NC(=O)CSc2nnc(Nc3ccccc3F)s2)CCCC1
- AC50 [1]: 29.1 µM [rising, single point]

Compound: COc1cccc(Oc2coc3c(CN4CCOCC4)c(O)ccc3c2=O)c1
- AC50 [1]: 15.8 µM [rising, partial curve, poor fit]

Compound: COc1ccc(NC(=O)/C(Cl)=C(/Cl)S(=O)(=O)Cc2ccc(C)cc2)cn1
- AC50 [1]: 2.31 µM [falling, full curve, poor fit]

Compound: O=C(NC1CCCC1)c1ccc(CN2CCOCC2)cc1
- AC50 [1]: 6.51 µM [falling, single point]

Compound: CCOc1ccc(-c2nc(CSc3nnc(C)s3)cs2)cc1OC
- AC50 [1]: 6.51 µM [rising, partial curve, poor fit]
- AC50 [2]: 11.6 µM [falling, partial curve, poor fit]

Compound: Cc1ccc(NC(=O)COc2cccc(/C=C3\SC(=S)N(CCC(=O)O)C3=O)c2)cc1Cl
- AC50 [1]: 0.282 µM [falling, full curve]

Compound: COc1cccc(/C=N/NC(=O)CCCc2ccc(OC)c(C)c2)c1
- AC50 [1]: 29.1 µM [rising, single point]

Compound: CCOC(=O)c1sc(=NC(=O)CCSc2ccccc2)n(C)c1C
- AC50 [1]: 2 µM [rising, partial curve]

Compound: O=C(CN1CCOCC1)NCCC12CC3CC(CC(C3)C1)C2
- AC50 [1]: 23.1 µM [rising, single point]

Compound: CC(=O)CC(=O)Nc1ccc(Cl)cn1
- AC50 [1]: 12.6 µM [falling, partial curve, poor fit]

Compound: COc1ccc(OC)c(NC(=O)CSc2nncc3ccccc23)c1
- AC50 [1]: 35.5 µM [falling, partial curve, poor fit]

Compound: Cc1ccc(C2CC(c3ccccc3)=NN2c2ccccc2)o1 (configuration not stated)
- AC50 [1]: 13 µM [rising, partial curve, poor fit]

Compound: Cc1ccc(SCCC(=O)Nc2ccccc2C(=O)NC(C)C)cc1
- AC50 [1]: 29.1 µM [falling, single point]

Compound: CCOC(=O)CCC(=O)NNC(=O)c1ccc(NC(=O)c2ccccc2)cc1
- AC50 [1]: 28.2 µM [falling, single point]

Compound: O=C(NC1CCCc2ccccc21)c1ccc(Br)cc1 (configuration not stated)
- AC50 [1]: 29.1 µM [falling, single point]

Compound: COc1ccccc1-c1cc(C(=O)Nc2cccnc2Cl)no1
- AC50 [1]: 0.1 µM [falling, full curve]

Compound: N/C(=N\OC(=O)c1ccc(Br)o1)c1ccccn1
- AC50 [1]: 7.08 µM [falling, partial curve, poor fit]

Compound: CC(C)(c1ccccc1)c1ccc(OCC(O)CNC2CCN(Cc3ccccc3)CC2)cc1 (configuration not stated)
- AC50 [1]: 35.5 µM [falling, single point]

Compound: COc1ccc(/C=N/NC(=O)c2cccnc2)cc1
- AC50 [1]: 7.08 µM [falling, full curve]

Compound: Clc1ccc(OCc2nnc(-c3ccccc3Br)o2)c(Cl)c1
- AC50 [1]: 0.708 µM [rising, full curve, poor fit]

Compound: O=C(NNc1nc2ccccc2s1)Nc1ccccc1
- AC50 [1]: 29.1 µM [falling, single point]

Compound: CCn1c(=O)cc(SCC(=O)NCC2CCCO2)c2ccccc21 (configuration not stated)
- AC50 [1]: 2.59 µM [rising, full curve, poor fit]

Compound: COC(=O)Cn1c(=NC(=O)c2nc3ccccc3s2)sc2cc(S(C)(=O)=O)ccc21
- AC50 [1]: 7.31 µM [rising, partial curve]

Compound: Cc1nn(Cc2cccc(C(=O)NN)c2)c(C)c1Cl
- AC50 [1]: 7.08 µM [falling, partial curve]

Compound: CC(NCc1cc(Br)ccc1OCC(=O)NCc1ccccc1)c1ccccc1 (configuration not stated)
- AC50 [1]: 15.8 µM [falling, single point]

Compound: C/C(=N\NC(=O)c1ccc(O)cc1)c1cccc(NC(=O)c2ccccc2C)c1
- AC50 [1]: 0.708 µM [falling, full curve]

Compound: COc1cccc(CNS(=O)(=O)c2ccc3c(c2)CC(C)N3C(=O)C2CC2)c1 (configuration not stated)
- AC50 [1]: 3.16 µM [falling, partial curve, poor fit]

Compound: C/C(=N\Nc1nc(Nc2ccccc2)nc(N2CCOCC2)n1)c1cccs1
- AC50 [1]: 11.2 µM [falling, partial curve, poor fit]

Compound: Cc1ccc2c(-c3csc(N)n3)c[nH]c2c1
- AC50 [1]: 15.8 µM [falling, partial curve, poor fit]

Compound: CCOc1ccc(C2=C/C(=C/c3cccnc3)C(=O)O2)cc1
- AC50 [1]: 25.9 µM [rising, partial curve, poor fit]

Compound: COc1cc(/C=C(\C#N)C(=O)Nc2ccccc2C(=O)O)cc(Cl)c1OC
- AC50 [1]: 35.5 µM [falling, single point]

Compound: CC1(O)CC(c2ccc(Cl)cc2)=NN1C(=O)c1ccc([N+](=O)[O-])cc1 (configuration not stated)
- AC50 [1]: 3.55 µM [falling, partial curve, poor fit]

Compound: O=[N+]([O-])c1ccc(O)c(/C=N/Nc2ccccc2Cl)c1
- AC50 [1]: 11.2 µM [falling, partial curve]

Compound: Cn1ccnc1SCC(=O)c1ccc([N+](=O)[O-])cc1
- AC50 [1]: 15.8 µM [rising, partial curve, poor fit]

Compound: Cc1ccc(NC(=O)c2oc3ccccc3c2C)c([N+](=O)[O-])c1
- AC50 [1]: 5.62 µM [rising, full curve, poor fit]

Compound: C=CCn1c(SCC(=O)NCc2ccco2)nc2ccccc2c1=O
- AC50 [1]: 11.2 µM [falling, partial curve]

Compound: CCN(CC)CCn1c2ccccc2c2cnc(N)c(C#N)c21
- AC50 [1]: 3.55 µM [falling, partial curve, poor fit]

Compound: COc1ccc(CCNc2ccc(C)cc2)cc1
- AC50 [1]: 8.2 µM [rising, partial curve, poor fit]

Compound: COc1ccc(OC)c(S(=O)(=O)NC2CC2)c1
- AC50 [1]: 6.31 µM [rising, partial curve, poor fit]

Compound: c1ccc(-c2cc3n(c2)CCc2ccccc2-3)cc1
- AC50 [1]: 29.1 µM [falling, single point]

Compound: CNC(=O)C(C)NS(=O)(=O)c1ccc(F)cc1 (configuration not stated)
- AC50 [1]: 3.26 µM [rising, single point]

Compound: O/N=C/c1ccnc(SCc2ccccc2)n1
- AC50 [1]: 0.355 µM [rising, partial curve, poor fit]

Compound: CSc1cccc(NC(=O)N2CCc3ccc(NC(=O)c4ccccn4)cc3C2)c1
- AC50 [1]: 35.5 µM [falling, single point]

Compound: CCOc1ccccc1NC(=O)CSc1nnc(CNC(=O)c2cccs2)o1
- AC50 [1]: 31.6 µM [falling, partial curve, poor fit]

Compound: CC(C)C(=O)NNC(=O)CSc1nnc(-c2ccccc2)c(-c2ccccc2)n1
- AC50 [1]: 3.55 µM [rising, single point]

Compound: CCCCCCC(=O)Nc1nc(C)c(-c2csc(Nc3cc(Cl)ccc3C)n2)s1
- AC50 [1]: 8.91 µM [falling, partial curve]

Compound: CNc1nc(N)c([N+](=O)[O-])c(Nc2cccc(Cl)c2)n1
- AC50 [1]: 3.98 µM [rising, full curve, poor fit]

Compound: O=C(CCSc1nc(-c2ccco2)cc(C(F)(F)F)n1)NCc1cccs1
- AC50 [2]: 23.1 µM [rising, partial curve, poor fit]

Compound: Cc1ccc(-n2c(C)csc2=N)cc1
- AC50 [1]: 29.1 µM [rising, single point]

Compound: CC(C)CNC(=O)/C=C/c1cccs1
- AC50 [1]: 25.9 µM [falling, single point]

Compound: COC(=O)c1sccc1NC(=S)N1CC(C)CC(C)C1 (configuration not stated)
- AC50 [1]: 6.51 µM [rising, partial curve]

Compound: Cc1ccc(-c2csc3ncnc(N4CCN(c5ccccc5O)CC4)c23)cc1
- AC50 [1]: 0.316 µM [rising, full curve, poor fit]

Compound: Cc1nn(-c2nc3ccccc3s2)c(N)c1-c1ccc(Cl)cc1
- AC50 [1]: 18.4 µM [rising, partial curve]

Compound: O=C1N[C@@H](Cc2ccccc2)C(=O)N2[C@H]1C[C@]1(Br)c3ccccc3N(S(=O)(=O)c3ccccc3)[C@H]21
- AC50 [1]: 16.4 µM [falling, single point]
- AC50 [2]: 32.6 µM [rising, partial curve, poor fit]

Compound: Clc1ccc(OCc2nc(-c3ccncc3)no2)c(Br)c1
- AC50 [1]: 4.61 µM [rising, full curve]

Compound: COc1nc(-c2ccccc2)cc(-c2ccc(OC)c(OC)c2)n1
- AC50 [1]: 5.8 µM [falling, full curve, poor fit]
